Data as given in patent US20080227700A1, “Compositions and Methods for Treatment of Protein Misfolding and Protein Aggregation Diseases” (priority 2004, published 2008).
Some results were stated once for a whole list of compounds, not compound by compound.

Biological target: T1, CS (Sus scrofa, UniProt P00889)
T1 construct: purchased
T1 sequence (P00889 28-464): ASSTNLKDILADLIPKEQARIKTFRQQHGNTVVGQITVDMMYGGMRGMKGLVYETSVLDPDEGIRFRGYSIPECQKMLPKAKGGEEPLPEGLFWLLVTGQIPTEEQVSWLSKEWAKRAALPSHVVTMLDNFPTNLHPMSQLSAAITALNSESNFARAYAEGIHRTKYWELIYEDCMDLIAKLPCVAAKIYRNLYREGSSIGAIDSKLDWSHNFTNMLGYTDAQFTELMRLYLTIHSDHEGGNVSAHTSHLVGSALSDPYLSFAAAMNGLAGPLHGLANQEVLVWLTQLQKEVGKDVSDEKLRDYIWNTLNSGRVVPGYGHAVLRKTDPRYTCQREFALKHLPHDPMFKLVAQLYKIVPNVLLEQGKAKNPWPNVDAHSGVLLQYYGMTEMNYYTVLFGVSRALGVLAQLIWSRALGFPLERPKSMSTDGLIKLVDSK
Test: Chaperone assay, thermal aggregation of CS
Assay type: biochemical
Settings: 10:1 molar ratio of peptide:CS; 50° C., sixty minutes; light scattering λ=340 nm; no peptide = 0% protection
Procedure: The chaperone activity of the peptides was measured as their ability to protect against the thermal aggregation of three chaperone target proteins βH crystallin, ADH and CS in chaperone assays performed at 50° C. (FIG. 19). A non-interactive αB crystallin sequence 111HGKHEERQDE120 was used as the negative control in the chaperone assays (FIG. 19). Based on near and far UVCD, the three target proteins unfolded in the order: CS>>>ADH>>βH crystallin when they were heated at 50° C. for sixty minutes (FIGS. 15 and 16). The thermal aggregation of βH crystallin, ADH and CS was measured as light scattering at λ=340 nm in the presence and absence of each peptide. The chaperone activity of each peptide was calculated as percent protection in which the aggregation of each target protein in the absence of any peptides was set at 0% protection (FIG. 19). The interactive peptides 73DRFSVNLDVKHFS85 and 131LTITSSLSDGV141 were effective inhibitors of aggregation of all three chaperone target proteins.
A (top left): thermal aggregation of chaperone target proteins βH crystallin, ADH and CS in the absence of peptides was measured as light scattering at λ=340 nm. […] The chaperone activity of each peptide was calculated as percent protection in which the aggregation of each target protein in the absence of any peptides was set at 0% protection. […]

Sequence | percent protection against thermal aggregation of CS
LTITSSLSDGV | greater than 70%
DRFSVNLDVKHFS | greater than 70%
